{
  "source": "patent US20060253263A1",
  "about": "“Method to optimize drug selection, dosing and evaluation and to help predict therapeutic response and toxicity from immunosuppressant therapy” (priority 2005, published 2006)",
  "origin": "cited, not measured here",
  "conditions": "cited from earlier work",
  "note": "Where two headings read alike, the source gives them in different places.",
  "data": [
    {"smiles": "O=c1[nH]cc(F)c(=O)[nH]1", "note": "[5-FU, 5-Fluorouracil]", "values": [
      {"measurement": "elimination half-life", "setting": "normal individuals", "value": "10 to 15", "unit": "min"},
      {"measurement": "elimination half-life", "setting": "people genetically deficient in DPD", "value": "about 2.5 hours"}
    ]}
  ]
}
